In the M2OR odorant receptor database:
The list shows a part of the results, in another mix than the full data. Calls are pooled over several reports, among them a noisy single-well screen. The list shows a part of the results.

Experiments:
Conditions in all cases: stereoisomer not certain
[1] = tested on: T1, OR4KF
T1 sequence (whole entry): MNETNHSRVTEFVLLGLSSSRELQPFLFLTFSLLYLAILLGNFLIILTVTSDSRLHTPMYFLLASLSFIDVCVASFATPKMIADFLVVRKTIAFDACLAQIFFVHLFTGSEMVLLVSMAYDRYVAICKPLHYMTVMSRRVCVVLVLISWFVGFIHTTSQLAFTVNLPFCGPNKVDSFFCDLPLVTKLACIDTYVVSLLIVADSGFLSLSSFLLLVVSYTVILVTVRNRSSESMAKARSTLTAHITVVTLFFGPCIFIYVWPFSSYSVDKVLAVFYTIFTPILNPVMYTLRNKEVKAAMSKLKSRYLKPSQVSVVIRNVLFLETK
Method in brief: (§1)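 Values were gathered from published papers (main text and supplementary material), with extra details requested from the original authors when needed, and checked for typos and inconsistencies. Each receptor–molecule pair is called responsive (active) if the original authors judged the measured signal statistically different from baseline, and non-responsive (inactive) otherwise. Assay methods varied by source, often transient mammalian cell-line luciferase assays. Recorded details include cell line, G-protein, co-transfected protein and tags.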

[2] = target: T2, OR4M1 (Homo sapiens) (UniProt Q8NGD0)
T2 sequence (whole entry): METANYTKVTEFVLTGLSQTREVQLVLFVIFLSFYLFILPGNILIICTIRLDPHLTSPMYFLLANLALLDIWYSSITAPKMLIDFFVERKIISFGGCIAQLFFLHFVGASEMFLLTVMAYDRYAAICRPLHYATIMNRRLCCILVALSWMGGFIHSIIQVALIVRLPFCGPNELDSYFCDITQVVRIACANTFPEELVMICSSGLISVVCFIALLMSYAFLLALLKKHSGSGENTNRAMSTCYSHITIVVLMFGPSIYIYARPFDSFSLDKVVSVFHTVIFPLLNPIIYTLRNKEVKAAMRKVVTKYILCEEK
Method in brief: as §1

[3] = tested on: T3, OR4K3
T3 sequence (whole entry): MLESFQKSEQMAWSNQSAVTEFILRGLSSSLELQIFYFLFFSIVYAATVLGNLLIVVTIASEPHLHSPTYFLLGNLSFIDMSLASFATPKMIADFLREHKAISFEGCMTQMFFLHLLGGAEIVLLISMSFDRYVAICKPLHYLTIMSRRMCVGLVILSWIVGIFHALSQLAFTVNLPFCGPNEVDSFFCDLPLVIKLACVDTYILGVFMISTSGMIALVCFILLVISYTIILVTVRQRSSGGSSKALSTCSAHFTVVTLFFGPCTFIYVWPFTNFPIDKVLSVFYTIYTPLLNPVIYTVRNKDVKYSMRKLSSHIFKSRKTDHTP
Method in brief: as §1

[4] = target: T4, OR4K5 (Homo sapiens) (UniProt Q8NGD3)
T4 sequence (whole entry): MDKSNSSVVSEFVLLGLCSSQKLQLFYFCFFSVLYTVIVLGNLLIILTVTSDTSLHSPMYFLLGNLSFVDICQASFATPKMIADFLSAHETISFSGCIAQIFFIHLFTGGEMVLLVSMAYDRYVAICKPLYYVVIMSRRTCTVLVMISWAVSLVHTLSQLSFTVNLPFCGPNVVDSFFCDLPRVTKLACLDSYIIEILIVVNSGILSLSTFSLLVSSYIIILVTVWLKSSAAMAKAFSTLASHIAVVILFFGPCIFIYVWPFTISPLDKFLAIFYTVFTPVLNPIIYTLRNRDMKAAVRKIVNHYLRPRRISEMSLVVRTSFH
Method in brief: as §1

[5] = tested on: T5, OR4KH
T5 sequence (whole entry): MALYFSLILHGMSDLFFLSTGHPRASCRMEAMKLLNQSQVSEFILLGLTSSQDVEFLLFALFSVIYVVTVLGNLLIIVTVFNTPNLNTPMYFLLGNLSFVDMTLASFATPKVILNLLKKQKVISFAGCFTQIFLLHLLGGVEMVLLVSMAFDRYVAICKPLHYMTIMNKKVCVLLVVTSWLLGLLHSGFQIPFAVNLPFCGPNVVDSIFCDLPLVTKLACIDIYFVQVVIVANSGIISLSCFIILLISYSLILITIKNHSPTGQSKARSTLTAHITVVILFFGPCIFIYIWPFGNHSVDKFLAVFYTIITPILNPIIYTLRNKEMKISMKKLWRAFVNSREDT
Method in brief: as §1

[6] = tested on: T6, OR4L1
T6 sequence (whole entry): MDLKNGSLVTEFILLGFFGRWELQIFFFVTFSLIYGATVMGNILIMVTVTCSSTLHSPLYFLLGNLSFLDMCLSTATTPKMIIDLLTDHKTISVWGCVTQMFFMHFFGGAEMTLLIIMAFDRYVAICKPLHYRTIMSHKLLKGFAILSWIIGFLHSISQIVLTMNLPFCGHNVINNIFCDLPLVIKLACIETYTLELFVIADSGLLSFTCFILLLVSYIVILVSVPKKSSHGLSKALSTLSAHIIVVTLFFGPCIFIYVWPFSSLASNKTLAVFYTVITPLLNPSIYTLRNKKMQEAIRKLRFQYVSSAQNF
Method in brief: as §1

[7] = target: T7, OR4N2 (Homo sapiens) (UniProt Q8NGD1)
T7 sequence (whole entry): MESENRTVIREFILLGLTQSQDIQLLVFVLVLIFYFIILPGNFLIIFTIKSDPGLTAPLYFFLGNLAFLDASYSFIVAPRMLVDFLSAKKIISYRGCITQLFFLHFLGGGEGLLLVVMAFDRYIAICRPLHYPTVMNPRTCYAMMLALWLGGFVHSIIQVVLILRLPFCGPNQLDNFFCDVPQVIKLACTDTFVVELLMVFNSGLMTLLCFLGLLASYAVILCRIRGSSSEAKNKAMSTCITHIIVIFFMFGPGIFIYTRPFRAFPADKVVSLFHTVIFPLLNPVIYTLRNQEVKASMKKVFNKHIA
Method in brief: as §1

[8] = target: T8, OR4N4 (Homo sapiens) (UniProt Q8N0Y3)
T8 sequence (whole entry): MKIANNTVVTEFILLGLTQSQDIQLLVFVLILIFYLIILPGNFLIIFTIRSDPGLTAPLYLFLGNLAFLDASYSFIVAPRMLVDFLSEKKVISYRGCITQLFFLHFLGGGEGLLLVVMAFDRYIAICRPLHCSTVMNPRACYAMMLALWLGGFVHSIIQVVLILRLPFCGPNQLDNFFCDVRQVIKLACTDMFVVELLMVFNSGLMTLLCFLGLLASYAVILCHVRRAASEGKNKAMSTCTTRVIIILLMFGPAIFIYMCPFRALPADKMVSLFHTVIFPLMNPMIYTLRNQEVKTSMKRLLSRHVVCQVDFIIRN
Method in brief: as §1

[9] = target: T9, OR4N5 (Homo sapiens) (UniProt Q8IXE1)
T9 sequence (whole entry): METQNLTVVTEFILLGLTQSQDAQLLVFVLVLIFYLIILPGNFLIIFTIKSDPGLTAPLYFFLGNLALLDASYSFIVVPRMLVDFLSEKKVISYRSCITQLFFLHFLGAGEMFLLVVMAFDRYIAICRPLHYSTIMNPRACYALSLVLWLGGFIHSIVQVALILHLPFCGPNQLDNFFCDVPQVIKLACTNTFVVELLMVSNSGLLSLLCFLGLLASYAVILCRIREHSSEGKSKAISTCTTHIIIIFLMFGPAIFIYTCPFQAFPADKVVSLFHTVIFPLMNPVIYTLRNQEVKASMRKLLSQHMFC
Method in brief: as §1

[10] = tested on: T10, OR4P4
T10 sequence (whole entry): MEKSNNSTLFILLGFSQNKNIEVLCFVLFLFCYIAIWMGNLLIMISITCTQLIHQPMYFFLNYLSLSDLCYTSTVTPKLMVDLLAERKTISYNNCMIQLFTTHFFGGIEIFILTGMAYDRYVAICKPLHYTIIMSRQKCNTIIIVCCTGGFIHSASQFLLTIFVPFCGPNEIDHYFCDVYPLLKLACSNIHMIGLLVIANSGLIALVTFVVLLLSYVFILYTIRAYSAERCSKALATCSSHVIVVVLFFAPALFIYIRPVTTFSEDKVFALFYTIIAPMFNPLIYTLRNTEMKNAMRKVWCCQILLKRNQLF
Method in brief: as §1

[11] = tested on: T11, OR4P4; remark: listed apart in the source
T11 sequence (whole entry): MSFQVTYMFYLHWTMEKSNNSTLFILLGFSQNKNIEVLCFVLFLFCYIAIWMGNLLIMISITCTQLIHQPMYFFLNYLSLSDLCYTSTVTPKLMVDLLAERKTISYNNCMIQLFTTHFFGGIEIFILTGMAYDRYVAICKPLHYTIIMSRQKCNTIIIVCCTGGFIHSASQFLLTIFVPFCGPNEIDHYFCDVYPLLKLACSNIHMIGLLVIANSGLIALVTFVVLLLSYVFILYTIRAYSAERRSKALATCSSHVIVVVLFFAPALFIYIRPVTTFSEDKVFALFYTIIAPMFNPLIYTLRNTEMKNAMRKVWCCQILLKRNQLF
Method in brief: as §1

[12] = target: T12, OR4Q3 (Homo sapiens) (UniProt Q8NH05)
T12 sequence (whole entry): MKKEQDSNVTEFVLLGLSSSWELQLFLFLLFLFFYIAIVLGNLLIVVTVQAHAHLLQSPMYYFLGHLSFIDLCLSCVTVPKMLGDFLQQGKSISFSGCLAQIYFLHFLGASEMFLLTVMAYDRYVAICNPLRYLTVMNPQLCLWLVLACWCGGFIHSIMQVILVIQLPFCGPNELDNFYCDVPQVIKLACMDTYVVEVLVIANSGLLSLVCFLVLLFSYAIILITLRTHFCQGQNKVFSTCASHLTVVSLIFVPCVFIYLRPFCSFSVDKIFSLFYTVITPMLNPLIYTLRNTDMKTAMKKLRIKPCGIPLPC
Method in brief: as §1

[13] = target: T13, OR4S1 (Homo sapiens) (UniProt Q8NGB4)
T13 sequence (whole entry): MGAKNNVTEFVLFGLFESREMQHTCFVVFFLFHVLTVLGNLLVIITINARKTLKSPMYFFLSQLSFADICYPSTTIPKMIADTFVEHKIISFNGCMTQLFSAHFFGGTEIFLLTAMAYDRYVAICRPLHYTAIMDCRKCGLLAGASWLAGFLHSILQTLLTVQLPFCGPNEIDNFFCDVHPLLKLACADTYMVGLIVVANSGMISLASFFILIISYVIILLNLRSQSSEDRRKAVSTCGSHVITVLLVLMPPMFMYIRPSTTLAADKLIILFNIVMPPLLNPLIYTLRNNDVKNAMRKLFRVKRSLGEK
Method in brief: as §1

Compound	odorant receptor agonist call [1]	odorant receptor agonist call [2]	odorant receptor agonist call [3]	odorant receptor agonist call [4]	odorant receptor agonist call [5]	odorant receptor agonist call [6]	odorant receptor agonist call [7]	odorant receptor agonist call [8]	odorant receptor agonist call [9]	odorant receptor agonist call [10]	odorant receptor agonist call [11]	odorant receptor agonist call [12]	odorant receptor agonist call [13]
C=C(C)C1CCC2=CC(=O)CC(C)C2(C)C1 (stereo unspecified)	active	inactive	–	–	–	–	–	–	–	–	–	–	–
CC(C)CCC(=O)O	inactive	inactive	inactive	inactive	inactive	inactive	inactive	inactive	inactive	inactive	inactive	inactive	inactive
CC(=O)c1ccccc1	–	–	active	inactive	inactive	inactive	active	inactive	inactive	inactive	inactive	inactive	inactive
CCCCCCCC=CC=O	inactive	inactive	inactive	inactive	inactive	inactive	inactive	inactive	inactive	inactive	inactive	inactive	inactive
C=CCSCC=C	active	inactive	inactive	inactive	inactive	inactive	inactive	inactive	inactive	inactive	inactive	inactive	inactive
CC(=O)OC(C)(C)C1CC=C(C)CC1 (stereo unspecified)	active	inactive	inactive	inactive	inactive	inactive	inactive	inactive	inactive	inactive	inactive	inactive	inactive
COC(=O)c1ccccc1	–	–	inactive	active	inactive	inactive	inactive	inactive	inactive	inactive	inactive	inactive	inactive
